# Measurements: article PMC11704248, “Alternative splicing in the DBD linker region of p63 modulates binding to DNA and iASPP in vitro” (Cell Death & Disease, 2025)
# These are yes or no findings as the source states them, for the method shown. In cells and extracts the contact can be indirect. Some results given as binding are weak or reduced against the parent protein; the word gives no strength. Tags and fused reporters may be left off the sequences shown.
# T1: GST-tagged iASPP CTD (UniProt Q8WUF5)
# T1 sequence: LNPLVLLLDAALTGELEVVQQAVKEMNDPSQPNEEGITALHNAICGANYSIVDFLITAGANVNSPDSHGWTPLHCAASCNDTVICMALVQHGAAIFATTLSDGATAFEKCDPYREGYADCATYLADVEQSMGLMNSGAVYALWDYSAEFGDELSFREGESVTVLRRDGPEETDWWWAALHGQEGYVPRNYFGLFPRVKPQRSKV
# Target: T1, GST-tagged iASPP CTD
# Experiment: pull-down; purified GST-tagged ASPP CTDs immobilised on magnetic glutathione agarose beads; N-terminally Myc-tagged prey in vitro translated in RRL; 3 h at 4 °C; 50 mM Tris pH 8.0, 150 mM NaCl, 0.1% Tween-20; WB with α-Myc; only the target purified
row,Binder,binding
1,"Myc-tagged ΔNp73α WT (protein, UniProt O15350-8 1-587) MLYVGDPARHLATAQFNLLSSTMDQMSSRAASASPYTPEHAASVPTHSPYAQPSSTFDTMSPAPVIPSNTDYPGPHHFEVTFQQSSTAKSATWTYSPLLKKLYCQIAKTCPIQIKVSTPPPPGTAIRAMPVYKKAEHVTDVVKRCPNHELGRDFNEGQSAPASHLIRVEGNNLSQYVDDPVTGRQSVVVPYEPPQVGTEFTTILYNFMCNSSCVGGMNRRPILIIITLEMRDGQVLGRRSFEGRICACPGRDRKADEDHYREQQALNESSAKNGAASKRAFKQSPPAVPALGAGVKKRRHGDEDTYYLQVRGRENFEILMKLKESLELMELVPQPLVDSYRQQQQLLQRPSHLQPPSYGPVLSPMNKVHGGMNKLPSVNQLVGQPPPHSSAATPNLGPVGPGMLNNHGHAVPANGEMSSSHSAQSMVSGSHCTPPPPYHADPSLVSFLTGLGCPNCIEYFTSQGLQSIYHLQNLTIEDLGALKIPEQYRMTIWRGLQDLKQGHDYSTAQQLLRSSNAATISIGGSGELQRQRVMEAVHFRVRHTITIPNRGGPGGGPDEWADFGFDLPDCKARKQPIKEEFTEAEIH",binds
2,"Myc-tagged ΔNp63α WT (protein, UniProt Q9H3D4-2 1-586) MLYLENNAQTQFSEPQYTNLGLLNSMDQQIQNGSSSTSPYNTDHAQNSVTAPSPYAQPSSTFDALSPSPAIPSNTDYPGPHSFDVSFQQSSTAKSATWTYSTELKKLYCQIAKTCPIQIKVMTPPPQGAVIRAMPVYKKAEHVTEVVKRCPNHELSREFNEGQIAPPSHLIRVEGNSHAQYVEDPITGRQSVLVPYEPPQVGTEFTTVLYNFMCNSSCVGGMNRRPILIIVTLETRDGQVLGRRCFEARICACPGRDRKADEDSIRKQQVSDSTKNGDGTKRPFRQNTHGIQMTSIKKRRSPDDELLYLPVRGRETYEMLLKIKESLELMQYLPQHTIETYRQQQQQQHQHLLQKQTSIQSPSSYGNSSPPLNKMNSMNKLPSVSQLINPQQRNALTPTTIPDGMGANIPMMGTHMPMAGDMNGLSPTQALPPPLSMPSTSHCTPPPPYPTDCSIVSFLARLGCSSCLDYFTTQGLTTIYQIEHYSMDDLASLKIPEQFRHAIWKGILDHRQLHEFSSPSHLLRTPSSASTVSVGSSETRGERVIDAVRFTLRQTISFPPRDEWNDFNFDMDARRNKQQRIKEEGE",binds
